Measurements taken from US6843989 (Seagen, dated 2005).
No constants are given. Whether binding was seen depends on the method and setting. Some entries that bind do so weakly or less than the wild type.

By UniProt entry, the sequences of proteins in these tests, tags left out. Residues count along the entry.
UniProt P25942, residues 21-193: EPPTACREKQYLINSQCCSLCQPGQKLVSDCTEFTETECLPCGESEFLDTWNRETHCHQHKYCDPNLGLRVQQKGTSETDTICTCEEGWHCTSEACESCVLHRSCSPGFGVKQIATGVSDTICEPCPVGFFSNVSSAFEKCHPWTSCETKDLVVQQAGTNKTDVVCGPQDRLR

Molecular target: CD40-Ig (a soluble fusion protein of CD40 and human immunoglobulin) (UniProt P25942)
Experiment: S2C6 pre-incubated with 25 µg/ml soluble CD40-Ig

B1: monoclonal antibody S2C6 (antibody, V domains shown)
VH: EVQLQQSGPDLVKPGASVKISCKASGYSFTGYYIHWVKQSHGKSLEWIGRVIPNNGGTSYNQKFKGKAILTVDKSSSTAYMELRSLTSEDSAVYYCAREGIYWWGHGTTLTVSS
VL: DVVVTQTPLSLPVSLGAQASISCRSSQSLVHSNGNTFLHWYLQKPGQSPKLLIYTVSNRFSGVPDRFSGSGSGTDFTLKISRVEAEDLGVYFCSQTTHVPWTFGGGTKLEIQ
Question: With B1 as the binder, how does the binding read?
Answer: binds
